# Measurements published in US20220204613A1 (D 10 THERAPEUTICS, published 2022).
# Amino acid sequences for entries named in this document (tags omitted). A change or cut given only in a name is not applied to a line headed by its entry.
# UniProt Q08722: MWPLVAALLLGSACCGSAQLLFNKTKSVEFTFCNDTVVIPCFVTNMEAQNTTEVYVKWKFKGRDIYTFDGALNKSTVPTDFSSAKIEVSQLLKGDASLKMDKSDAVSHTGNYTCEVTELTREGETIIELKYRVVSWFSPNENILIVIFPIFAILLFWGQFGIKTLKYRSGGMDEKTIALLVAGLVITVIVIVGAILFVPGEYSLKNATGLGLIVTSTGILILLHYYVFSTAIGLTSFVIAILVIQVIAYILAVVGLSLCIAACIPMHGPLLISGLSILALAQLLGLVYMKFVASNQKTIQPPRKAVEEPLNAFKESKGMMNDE
# These are yes or no findings as the source states them, for the method shown. Some entries that bind do so weakly or less than the wild type.
# What was measured:
# human CD47 protein [1] = biological target: T1, human CD47 protein (human, UniProt Q08722 19-139, limits assumed); experiment: SPR affinity ranking from supernatant
# T1 construct: also called human CD47 antigen
# human CD47 protein [2] = biological target: T1, human CD47 protein; experiment: affinity ranking of humanized antibodies from supernatant against human CD47 protein (sensorgrams)
# human CD47 protein [3] = biological target: T1, human CD47 protein; experiment: binding confirmation of the chimeric antibody (SPR / ELISA)
binding (human CD47 protein [1]),binding (human CD47 protein [2]),binding (human CD47 protein [3]),Binder
binds,binds,–,"VH1+VL3 (antibody, human IgG4 S228P, kappa, V domains shown, Humanized IgG, hIgG4 CH (S228P) and human kappa CL; leader residues 1-19 of each entry left out; Tested from supernatant; also called U0959FD090-VH1 + U0959FD090-VL3) VH: QVQLVQSGAEVKKPGASVKVSCKASGYTFTSSVIHWVRQAPGQGLEWMGYINPYSDGTKFNEKCKIRVTMTRDTSISTAYMELSRLRSDDTAVYYCARGLIGTRYDSWFAYWGQGTLVTVSS VL: DIQMTQSPSSLSASVGDRVTITCRTSQDINNYLNWYQQKPGKAVKLLIYYTSRLHSGVPSRFSGSGSGTDYTFTISSLQPEDIATYFCQQGNTLPYTFGGGTKVEIKR"
–,–,binds,"chimeric-VH+VL2 (antibody, human IgG4, V domains shown) VH: EVQLQQSGPELVKPGASVKLSCKASGYTFTSSVIHWVKQKPGQGLEWLGYINPYSDGTKFNEKCKIKATLTSDKSSSTAYMELSSLTSEDSAVYYCARGLIGTRYDSWFAYWGQGTLVTVSA VL: DIQMNQSPSSLSASLGDTITITCHASQNINVWLSWYQQKPGNIPKLLIYKASNLHTGVPSRFSGSGSGTGFTLTISSLQPEDIATYYCQQGQSYPLTFGAGTKLELK"

# The next lines start with the binder.
Binder,binding (human CD47 protein [1]),binding (human CD47 protein [2]),binding (human CD47 protein [3])
"VH1+VL1 (antibody, human IgG4 S228P, kappa, V domains shown, Humanized IgG, hIgG4 CH (S228P) and human kappa CL; Tested from supernatant; also called U0959FD090-VH1 + U0959FD090-VL1) VH: QVQLVQSGAEVKKPGASVKVSCKASGYTFTSSVIHWVRQAPGQGLEWMGYINPYSDGTKFNEKCKIRVTMTRDTSISTAYMELSRLRSDDTAVYYCARGLIGTRYDSWFAYWGQGTLVTVSS VL: DIQMTQSPSSLSASVGDRVTITCRTSQDINNYLNWYQQKPGKAPKLLIYYTSRLHSGVPSRFSGSGSGTDFTFTISSLQPEDIATYYCQQGNTLPYTFGGGTKVEIKR",binds,binds,–
"VH1+VL2 (antibody, human IgG4 S228P, kappa, V domains shown, Humanized IgG, hIgG4 CH (S228P) and human kappa CL; leader residues 1-19 of each entry left out; Tested from supernatant; also called U0959FD090-VH1 + U0959FD090-VL2) VH: QVQLVQSGAEVKKPGASVKVSCKASGYTFTSSVIHWVRQAPGQGLEWMGYINPYSDGTKFNEKCKIRVTMTRDTSISTAYMELSRLRSDDTAVYYCARGLIGTRYDSWFAYWGQGTLVTVSS VL: DIQMTQSPSSLSASVGDRVTITCRTSQDINNYLNWYQQKPGKAVKLLIYYTSRLHSGVPSRFSGSGSGTDFTFTISSLQPEDIATYFCQQGNTLPYTFGGGTKVEIKR",binds,binds,–
